Experimental data published in PubChem BioAssay (EPA / NIEHS).
The inconclusive results got no clear call from the source; some entries with a clear call stand among them for comparison. For some assays here: A potency beside an inconclusive call is a rough fit, not a confirmed value. Activity calls are given as the source filed them. The calls were made as follows: active = hit-call score of the fitted dose curve at least 0.9, where 1 is the maximum; inconclusive = response in the unintended direction; inactive = score below 0.9.

The chains behind the UniProt entries cited, without tags or fusion partners. Where a name states a change or a piece, a line headed by the entry shows the natural chain unless it says otherwise.
UniProt O14965: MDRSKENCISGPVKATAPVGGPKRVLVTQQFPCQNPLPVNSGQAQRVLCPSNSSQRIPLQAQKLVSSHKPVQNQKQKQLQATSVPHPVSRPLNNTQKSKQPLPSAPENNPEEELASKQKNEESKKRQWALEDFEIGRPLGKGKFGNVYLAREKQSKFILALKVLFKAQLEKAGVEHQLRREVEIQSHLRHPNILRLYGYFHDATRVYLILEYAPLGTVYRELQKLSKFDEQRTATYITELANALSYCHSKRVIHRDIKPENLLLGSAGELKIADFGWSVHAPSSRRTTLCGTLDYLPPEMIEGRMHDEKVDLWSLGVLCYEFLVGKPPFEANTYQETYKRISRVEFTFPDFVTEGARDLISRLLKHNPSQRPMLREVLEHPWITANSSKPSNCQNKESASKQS
UniProt Q9UBN7: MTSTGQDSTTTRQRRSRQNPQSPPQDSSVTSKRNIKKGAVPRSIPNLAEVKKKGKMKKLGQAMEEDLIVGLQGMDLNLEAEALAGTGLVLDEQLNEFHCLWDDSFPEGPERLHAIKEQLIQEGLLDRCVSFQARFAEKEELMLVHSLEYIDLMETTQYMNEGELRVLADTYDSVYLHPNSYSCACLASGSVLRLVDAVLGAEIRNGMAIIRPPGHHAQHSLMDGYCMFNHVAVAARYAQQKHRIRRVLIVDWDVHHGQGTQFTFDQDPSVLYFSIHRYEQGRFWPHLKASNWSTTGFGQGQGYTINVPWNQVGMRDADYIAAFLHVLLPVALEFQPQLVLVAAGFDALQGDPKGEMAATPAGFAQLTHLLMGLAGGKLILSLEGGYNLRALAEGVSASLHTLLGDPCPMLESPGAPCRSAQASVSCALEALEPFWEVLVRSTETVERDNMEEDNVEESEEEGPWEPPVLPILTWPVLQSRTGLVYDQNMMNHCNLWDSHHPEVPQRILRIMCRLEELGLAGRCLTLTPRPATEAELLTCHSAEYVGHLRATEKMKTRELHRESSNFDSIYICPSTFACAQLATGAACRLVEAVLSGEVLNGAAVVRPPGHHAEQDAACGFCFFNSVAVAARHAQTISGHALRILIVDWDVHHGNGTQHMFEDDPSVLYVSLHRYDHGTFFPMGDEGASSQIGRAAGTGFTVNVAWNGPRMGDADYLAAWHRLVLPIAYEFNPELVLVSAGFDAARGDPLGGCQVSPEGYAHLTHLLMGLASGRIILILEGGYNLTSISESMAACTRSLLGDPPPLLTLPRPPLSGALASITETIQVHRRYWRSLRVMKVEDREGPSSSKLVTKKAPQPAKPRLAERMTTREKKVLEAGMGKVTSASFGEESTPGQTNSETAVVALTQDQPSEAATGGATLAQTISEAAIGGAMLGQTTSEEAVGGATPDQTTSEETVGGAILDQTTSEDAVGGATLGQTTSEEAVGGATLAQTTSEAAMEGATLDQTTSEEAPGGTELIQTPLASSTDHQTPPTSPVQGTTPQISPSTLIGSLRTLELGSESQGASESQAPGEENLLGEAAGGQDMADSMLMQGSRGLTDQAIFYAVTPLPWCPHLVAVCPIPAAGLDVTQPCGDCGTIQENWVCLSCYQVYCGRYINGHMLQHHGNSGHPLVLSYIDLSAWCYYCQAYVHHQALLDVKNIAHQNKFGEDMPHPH
UniProt P60484: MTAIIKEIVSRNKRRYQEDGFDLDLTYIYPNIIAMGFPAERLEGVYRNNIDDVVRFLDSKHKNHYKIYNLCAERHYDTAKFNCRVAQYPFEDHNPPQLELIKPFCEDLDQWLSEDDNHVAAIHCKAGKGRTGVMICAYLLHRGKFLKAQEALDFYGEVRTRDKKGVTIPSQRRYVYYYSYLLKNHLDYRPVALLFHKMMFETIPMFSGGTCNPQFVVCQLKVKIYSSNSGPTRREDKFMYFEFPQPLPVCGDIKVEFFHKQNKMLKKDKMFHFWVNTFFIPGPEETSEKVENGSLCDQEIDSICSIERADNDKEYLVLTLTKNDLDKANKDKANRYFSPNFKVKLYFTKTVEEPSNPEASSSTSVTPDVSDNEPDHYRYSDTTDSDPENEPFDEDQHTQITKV
UniProt Q02763: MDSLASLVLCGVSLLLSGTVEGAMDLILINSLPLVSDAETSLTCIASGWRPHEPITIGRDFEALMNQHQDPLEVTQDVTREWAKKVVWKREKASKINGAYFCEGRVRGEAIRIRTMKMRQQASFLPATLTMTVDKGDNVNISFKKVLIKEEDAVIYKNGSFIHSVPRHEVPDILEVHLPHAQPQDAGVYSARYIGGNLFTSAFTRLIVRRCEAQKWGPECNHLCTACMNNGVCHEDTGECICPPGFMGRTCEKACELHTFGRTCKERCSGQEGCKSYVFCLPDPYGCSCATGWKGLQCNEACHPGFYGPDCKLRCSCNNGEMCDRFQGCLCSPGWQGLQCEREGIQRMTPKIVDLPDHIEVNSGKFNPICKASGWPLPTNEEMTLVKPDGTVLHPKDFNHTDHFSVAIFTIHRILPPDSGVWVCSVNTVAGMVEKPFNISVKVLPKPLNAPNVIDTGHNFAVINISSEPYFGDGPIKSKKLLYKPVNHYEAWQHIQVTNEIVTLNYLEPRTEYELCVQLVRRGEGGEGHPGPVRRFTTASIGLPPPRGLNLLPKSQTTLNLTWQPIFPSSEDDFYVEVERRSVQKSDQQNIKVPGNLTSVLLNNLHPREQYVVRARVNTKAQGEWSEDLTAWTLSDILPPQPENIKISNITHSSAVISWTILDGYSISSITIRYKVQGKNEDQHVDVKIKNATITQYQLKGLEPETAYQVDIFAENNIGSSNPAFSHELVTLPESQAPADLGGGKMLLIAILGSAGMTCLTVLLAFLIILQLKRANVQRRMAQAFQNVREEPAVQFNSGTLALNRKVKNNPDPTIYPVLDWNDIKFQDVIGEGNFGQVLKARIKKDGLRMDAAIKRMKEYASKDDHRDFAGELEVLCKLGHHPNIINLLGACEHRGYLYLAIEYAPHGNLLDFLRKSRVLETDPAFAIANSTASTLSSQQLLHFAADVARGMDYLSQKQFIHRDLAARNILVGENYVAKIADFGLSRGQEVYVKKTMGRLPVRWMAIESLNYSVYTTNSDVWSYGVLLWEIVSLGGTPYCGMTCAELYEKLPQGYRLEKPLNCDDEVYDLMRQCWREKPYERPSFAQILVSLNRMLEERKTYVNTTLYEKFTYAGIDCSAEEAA
UniProt P42575: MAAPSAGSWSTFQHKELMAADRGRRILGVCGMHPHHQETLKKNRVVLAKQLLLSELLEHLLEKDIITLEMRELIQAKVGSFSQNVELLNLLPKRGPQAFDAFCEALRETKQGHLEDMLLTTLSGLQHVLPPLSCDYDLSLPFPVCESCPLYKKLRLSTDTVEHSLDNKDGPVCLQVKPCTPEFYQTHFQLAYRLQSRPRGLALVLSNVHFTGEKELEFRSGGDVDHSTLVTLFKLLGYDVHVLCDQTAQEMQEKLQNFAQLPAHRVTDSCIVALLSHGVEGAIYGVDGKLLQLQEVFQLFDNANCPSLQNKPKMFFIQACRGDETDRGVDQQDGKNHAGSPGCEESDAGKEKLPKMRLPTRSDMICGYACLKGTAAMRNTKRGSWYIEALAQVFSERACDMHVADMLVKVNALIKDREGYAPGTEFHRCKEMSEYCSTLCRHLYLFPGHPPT
UniProt P20789, whole entry, looked up: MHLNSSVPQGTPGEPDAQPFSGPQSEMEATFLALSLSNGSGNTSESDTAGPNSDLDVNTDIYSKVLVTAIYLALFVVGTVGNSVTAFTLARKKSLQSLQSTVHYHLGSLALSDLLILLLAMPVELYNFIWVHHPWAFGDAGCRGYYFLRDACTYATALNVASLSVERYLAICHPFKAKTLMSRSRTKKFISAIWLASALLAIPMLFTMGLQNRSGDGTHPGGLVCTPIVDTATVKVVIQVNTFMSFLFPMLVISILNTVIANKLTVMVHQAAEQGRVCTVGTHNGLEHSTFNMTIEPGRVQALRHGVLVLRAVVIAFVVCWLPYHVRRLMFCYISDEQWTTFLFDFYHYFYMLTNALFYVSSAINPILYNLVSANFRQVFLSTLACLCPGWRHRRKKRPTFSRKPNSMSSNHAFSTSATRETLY
UniProt P11362, whole entry, looked up: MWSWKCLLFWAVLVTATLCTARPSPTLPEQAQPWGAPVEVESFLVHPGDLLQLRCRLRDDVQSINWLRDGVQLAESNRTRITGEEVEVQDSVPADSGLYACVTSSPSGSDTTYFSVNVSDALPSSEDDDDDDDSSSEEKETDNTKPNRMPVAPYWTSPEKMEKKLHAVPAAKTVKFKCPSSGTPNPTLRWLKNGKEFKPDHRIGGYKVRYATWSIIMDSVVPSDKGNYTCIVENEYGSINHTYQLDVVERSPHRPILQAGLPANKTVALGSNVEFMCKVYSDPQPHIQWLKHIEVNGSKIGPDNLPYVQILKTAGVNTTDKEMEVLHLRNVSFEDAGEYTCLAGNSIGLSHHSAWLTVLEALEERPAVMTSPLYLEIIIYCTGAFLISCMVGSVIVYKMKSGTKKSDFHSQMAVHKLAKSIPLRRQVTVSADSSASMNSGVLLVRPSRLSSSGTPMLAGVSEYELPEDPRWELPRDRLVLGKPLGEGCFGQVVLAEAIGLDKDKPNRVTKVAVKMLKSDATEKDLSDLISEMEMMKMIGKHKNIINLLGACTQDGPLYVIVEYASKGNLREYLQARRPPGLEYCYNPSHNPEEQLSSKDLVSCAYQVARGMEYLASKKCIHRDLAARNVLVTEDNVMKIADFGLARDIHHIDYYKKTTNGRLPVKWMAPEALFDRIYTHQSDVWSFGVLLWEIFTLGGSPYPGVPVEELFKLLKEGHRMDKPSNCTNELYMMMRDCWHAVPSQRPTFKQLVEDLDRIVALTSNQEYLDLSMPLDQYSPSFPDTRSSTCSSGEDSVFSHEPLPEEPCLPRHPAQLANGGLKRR
UniProt P28482, whole entry, looked up: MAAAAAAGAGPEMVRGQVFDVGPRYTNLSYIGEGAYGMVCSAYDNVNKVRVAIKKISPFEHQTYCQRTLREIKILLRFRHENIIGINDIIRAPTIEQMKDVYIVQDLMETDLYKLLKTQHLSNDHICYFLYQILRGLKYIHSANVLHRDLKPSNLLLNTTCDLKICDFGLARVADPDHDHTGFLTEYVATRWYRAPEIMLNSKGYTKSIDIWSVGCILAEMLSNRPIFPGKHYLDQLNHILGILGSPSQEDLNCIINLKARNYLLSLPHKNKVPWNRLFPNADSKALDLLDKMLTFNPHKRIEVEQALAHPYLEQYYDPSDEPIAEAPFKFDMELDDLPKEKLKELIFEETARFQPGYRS
UniProt P17706: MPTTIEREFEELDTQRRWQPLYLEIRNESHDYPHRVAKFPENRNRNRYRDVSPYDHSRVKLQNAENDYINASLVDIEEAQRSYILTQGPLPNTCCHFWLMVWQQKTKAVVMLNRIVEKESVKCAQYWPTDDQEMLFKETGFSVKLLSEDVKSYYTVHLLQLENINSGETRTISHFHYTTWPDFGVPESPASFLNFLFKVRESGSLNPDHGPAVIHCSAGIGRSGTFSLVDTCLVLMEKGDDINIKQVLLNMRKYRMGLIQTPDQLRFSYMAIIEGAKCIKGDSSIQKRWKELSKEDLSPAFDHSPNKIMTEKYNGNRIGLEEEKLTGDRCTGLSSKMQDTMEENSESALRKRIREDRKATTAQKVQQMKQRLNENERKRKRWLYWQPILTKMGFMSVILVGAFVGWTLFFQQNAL
UniProt P67775, whole entry, looked up: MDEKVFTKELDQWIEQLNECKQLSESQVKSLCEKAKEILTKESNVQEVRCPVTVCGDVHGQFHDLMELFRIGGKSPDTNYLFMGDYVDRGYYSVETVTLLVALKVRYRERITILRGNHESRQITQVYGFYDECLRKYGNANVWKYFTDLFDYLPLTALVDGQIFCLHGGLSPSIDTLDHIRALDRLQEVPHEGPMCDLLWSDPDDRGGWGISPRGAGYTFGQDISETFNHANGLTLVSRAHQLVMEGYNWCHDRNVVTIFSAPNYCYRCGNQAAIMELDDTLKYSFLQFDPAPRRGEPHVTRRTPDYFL
UniProt P70536: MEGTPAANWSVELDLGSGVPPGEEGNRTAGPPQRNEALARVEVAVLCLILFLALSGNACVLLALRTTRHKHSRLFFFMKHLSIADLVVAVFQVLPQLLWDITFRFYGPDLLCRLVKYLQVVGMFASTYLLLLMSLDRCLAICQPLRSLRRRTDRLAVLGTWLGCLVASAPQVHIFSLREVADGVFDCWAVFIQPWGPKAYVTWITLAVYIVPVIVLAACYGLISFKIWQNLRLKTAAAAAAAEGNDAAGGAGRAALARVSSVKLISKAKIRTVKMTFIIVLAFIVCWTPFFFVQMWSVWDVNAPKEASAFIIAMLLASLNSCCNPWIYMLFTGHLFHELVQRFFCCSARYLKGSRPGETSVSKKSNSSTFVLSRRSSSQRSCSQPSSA

Key:
[1] = biological target: human Aurora Kinase A - serine/threonine-protein Kinase 6 (AurA), AURKA (gene 6790) (UniProt O14965); test: NVS_ENZ_hAurA: NovaScreen (NVS) Enzymatic Assay for human Aurora Kinase A - serine/threonine-protein Kinase 6 (AurA) (AID 2283142)
Method in brief: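 Cell-free enzymatic assay with human Aurora A, 1 hour after dosing. Fluorescent substrate turnover detected after electrophoretic mobility shift separation of substrate and product. Screened at 25 uM, actives retested in concentration-response up to 50 uM.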

[2] = biological target: human Epidermal Growth Factor Receptor (EGFR), EGFR (gene 1956) (UniProt P00533); test: NVS_ENZ_hEGFR: NovaScreen (NVS) Enzymatic Assay for human Epidermal Growth Factor Receptor (EGFR) (AID 2283151)
Method in brief: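 Cell-free kinase assay, fluorescence plus electrophoretic mobility shift separating substrate and product, read 1 hour after dosing; loss of signal vs DMSO. Duplicate screen at 25 uM, then concentration-response to 50 uM.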

[3] = biological target: human Ephrin type-A Receptor 2 (EphA2), EPHA2 (gene 1969) (UniProt P29317); test: NVS_ENZ_hEphA2: NovaScreen (NVS) Enzymatic Assay for human Ephrin type-A Receptor 2 (EphA2) (AID 2283155)
Method in brief: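 Cell-free recombinant EphA2 kinase with specific substrate, 1 h, fluorescence with electrophoretic mobility-shift separation of substrate and product. Primary screen at 25 uM in duplicate; hits retested in singleton concentration-response up to 50 uM, referenced to DMSO.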

[4] = biological target: Protein deacetylase HDAC6 (Homo sapiens) (UniProt Q9UBN7); test: NVS_ENZ_hHDAC6: NovaScreen (NVS) Enzymatic Assay for human Histone Deacetylase 6 (HDAC6) (AID 2283164)
Method in brief: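 Recombinant human HDAC6 with fluorescent substrate, 1 h; product separated from substrate by electrophoretic mobility shift. Primary screen in duplicate at 25 uM; actives retested singly in concentration-response up to 50 uM, fitted relative to DMSO.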

[5] = biological target: human Phosphatase and Tensin Homolog (PTEN), PTEN (gene 5728) (UniProt P60484); test: NVS_ENZ_hPTEN: NovaScreen (NVS) Enzymatic Assay for human Phosphatase and Tensin Homolog (PTEN) (AID 2283203)
Method in brief: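 Cell-free recombinant human PTEN with fluorescent substrate; product separated by electrophoretic mobility shift and read by fluorescence 1 h after dosing. Primary screen in duplicate at 25 uM, actives followed in concentration series versus DMSO.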

[6] = biological target: human Tyrosine Protein Kinase Receptor Tie-2 (Tie2), TEK (gene 7010) (UniProt Q02763); test: NVS_ENZ_hTie2: NovaScreen (NVS) Enzymatic Assay for human Tyrosine Protein Kinase Receptor Tie-2 (Tie2) (AID 2283225)
Method in brief: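 Recombinant human Tie2 kinase activity was read cell-free by fluorescence with electrophoretic mobility shift, 1 hour after dosing. The screen used 25 uM in duplicate, then concentration-response up to 50 uM. Signal loss was scored against DMSO.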

[7] = biological target: human Ephrin type-B Receptor 2 (EphB2), EPHB2 (gene 2048) (UniProt P29323); test: NVS_ENZ_hEphB2: NovaScreen (NVS) Enzymatic Assay for human Ephrin type-B Receptor 2 (EphB2) (AID 2283156)
Method in brief: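 Recombinant kinase with fluorescent substrate, product separated by electrophoretic mobility shift, read 1 h after dosing. Duplicate 25 uM screen, then singleton concentration-response to 50 uM max; loss of signal versus DMSO.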

[8] = biological target: human Caspase 2 (CASP2), CASP2 (gene 835) (UniProt P42575); test: NVS_ENZ_hCASP2: NovaScreen (NVS) Enzymatic Assay for human Caspase 2 (CASP2) (AID 2283135)
Method in brief: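 E. coli-expressed enzyme in a cell-free protease assay, fluorescence read 1 h after dosing. Compounds at 25 uM in duplicate, with concentration-response up to 50 uM for hits; loss of signal against DMSO baseline.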

[9] = biological target: rat Neurotensin Receptor (NTS), Ntsr1 (gene 366274) (UniProt P20789); test: NVS_GPCR_rNTS: NovaScreen (NVS) G Protein-Coupled Receptor Assay for rat Neurotensin Receptor (NTS) (AID 2283308)
Method in brief: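 Rat forebrain membranes; radioligand binding with competitive displacement, read by filter-based scintillation counting 1 h after dosing. Primary screen in duplicate at 25 uM; actives (e.g., 30% inhibition) rerun in concentration-response up to 50 uM, loss-of-signal versus DMSO.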

[10] = biological target: human Fibroblast Growth Factor Receptor 1 (FGFR1), FGFR1 (gene 2260) (UniProt P11362); test: NVS_ENZ_hFGFR1: NovaScreen (NVS) Enzymatic Assay for human Fibroblast Growth Factor Receptor 1 (FGFR1) (AID 2283159);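 also: hits lower the signal so potencies describe inhibitors of the kinase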
Method in brief: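 Cell-free recombinant kinase with fluorescent substrate, product separated by electrophoretic mobility shift; read 1 hour after dosing, loss of signal relative to DMSO. Initial screen in duplicate at 25 uM, actives followed in concentration series.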

[11] = biological target: human Mitogen-Activated Protein Kinase 1 (MAPK 1), MAPK1 (gene 5594) (UniProt P28482); test: NVS_ENZ_hMAPK1: NovaScreen (NVS) Enzymatic Assay for human Mitogen-Activated Protein Kinase 1 (MAPK 1) (AID 2283175)
Method in brief: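 Cell-free recombinant human MAPK1 enzymatic assay, fluorescence/electrophoretic mobility shift read at 1 h; loss of signal vs DMSO. Primary screen in duplicate at 25 uM; actives (e.g. ≥30% inhibition) run as concentration-response up to 50 uM.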

[12] = biological target: human Protein Tyrosine Phosphatase Non-receptor Type 2 (PTPN2), PTPN2 (gene 5771) (UniProt P17706); test: NVS_ENZ_hPTPN2: NovaScreen (NVS) Enzymatic Assay for human Protein Tyrosine Phosphatase Non-receptor Type 2 (PTPN2) (AID 2283207)
Method in brief: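 Cell-free recombinant enzyme with fluorescent substrate, product separated by electrophoretic mobility shift; read 1 h after dosing. Primary screen single concentration (25 uM) in duplicate; actives followed in concentration series; loss of signal versus DMSO.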

PPP2CA (gene 5515) = PPP2CA (gene 5515) (UniProt P67775); test: NVS_ENZ_hPPP2CA: NovaScreen (NVS) Enzymatic Assay for human Protein Phosphatase 2 Aatalytic subunit Alpha (PPP2CA) (AID 2283199)
Method in brief: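 Recombinant human PPP2CA with fluorescent substrate; product separated from substrate by electrophoretic mobility shift, read 1.33 h after dosing. Duplicate single-point at 25 uM, then singleton concentration-response up to 50 uM; loss of signal versus DMSO.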

[13] = biological target: human IkappaB Kinase alpha (IKKa), CHUK (gene 1147) (UniProt O15111); test: NVS_ENZ_hIKKa: NovaScreen (NVS) Enzymatic Assay for human IkappaB Kinase alpha (IKKa) (AID 2283167)
Method in brief: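 Cell-free recombinant human IKKa with fluorescent substrate, product separated by electrophoretic mobility shift; read 1 hour after dosing. Primary screen duplicate at 25 uM, actives then concentration-response up to 50 uM; loss of signal relative to DMSO.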

[14] = system: rat Monoamine Oxidase, MAO-A, Peripheral (MAOAP), gene 29253; test: NVS_ENZ_rMAOAP: NovaScreen (NVS) Enzymatic Assay for rat Monoamine Oxidase, MAO-A, Peripheral (MAOAP) (AID 2283237)
Method in brief: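 Rat liver mitochondrial membranes served as the MAO-A source, with enzyme activity measured by radiometric scintillation counting 1.17 hours after dosing. Loss of signal was fitted against DMSO; primary screen used 25 uM in duplicate, follow-up used concentration series.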

[15] = biological target: rat Oxytocin Receptor (OXT), Oxtr (gene 25342) (UniProt P70536); test: NVS_GPCR_rOXT: NovaScreen (NVS) G Protein-Coupled Receptor Assay for rat Oxytocin Receptor (OXT) (AID 2283330)
Method in brief: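 Radioligand displacement on rat uterine membranes, 1 h incubation, filter-based scintillation counting. Chemicals were screened in duplicate at 25 uM, and those passing threshold were retested in concentration-response up to 50 uM. Loss of binding was fitted versus DMSO.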

CC1=C(/C=C/C(C)=C/C=C/C(C)=C/CO)C(C)(C)CCC1
outcome [1]: inactive
AC50 [2]: inconclusive: 406 nM
outcome [3]: inactive
AC50 [4]: inconclusive: 0.527 µM
AC50 [5]: inconclusive: 0.72 µM
AC50 [6]: inconclusive: 0.104 µM

Cc1[nH]nc2c1N=C(c1ccccc1Cl)c1cc([N+](=O)[O-])ccc1N2
AC50 [3]: inconclusive: 25 µM
outcome [7]: inactive

O=C(OCCOCCOC(=O)c1ccccc1)c1ccccc1
AC50 [3]: inconclusive: 25 µM

O=S(=O)(O)c1ccc(N=Nc2c(O)ccc3cc(S(=O)(=O)O)ccc23)cc1
AC50 [8]: active: 20400 nM
outcome [5]: inactive
outcome [9]: inactive

CCO[Si](CCCNC(N)=O)(OCC)OCC
AC50 [8]: inconclusive: 163 nM

CC(C)c1cccc(C(C)C)c1N1C(=O)c2ccc(O)cc2C1=O
AC50 [3]: inconclusive: 0.564 µM
AC50 [10]: inconclusive: 115 nM
outcome [5]: inactive

NCCO
AC50 [3]: inconclusive: 25 µM
outcome [4]: inactive
outcome [11]: inactive
outcome [12]: inactive
outcome [6]: inactive

COc1ccc(OC(F)(F)F)cc1CN[C@H]1CCCN[C@H]1c1ccccc1
AC50 [1]: inconclusive: 25 µM
AC50 (PPP2CA (gene 5515)): inconclusive: 25 µM
AC50 [5]: inconclusive: 25 µM
AC50 [12]: inconclusive: 25 µM

CCCCOC(=O)c1ccc(O)cc1
outcome [8]: inactive

Cc1cc(NC(=O)C(=O)O)cc(C)c1Oc1ccc(O)c2c1CCC2
AC50 [8]: inconclusive: 440 nM
AC50 [3]: inconclusive: 25 µM

O=C(O)CCN(C1(C(=O)NO)CCCC1)S(=O)(=O)c1ccc(Oc2ccc(F)cc2)cc1
AC50 [3]: inconclusive: 0.0374 µM

CC=Cc1ccc(O)c(OC)c1
outcome [1]: inactive

Cc1c(-c2cccnc2)c2ccccc2n1CCCCC(=O)O
outcome [8]: inactive

COc1ccc2c(c1)c(CC(=O)O)c(C)n2C(=O)c1ccc(Cl)cc1
AC50 [1]: inconclusive: 25 µM

O=C(Nc1ccc([N+](=O)[O-])cc1Cl)c1cc(Cl)ccc1O
AC50 [7]: inconclusive: 25 µM
outcome [11]: inactive
AC50 [6]: inconclusive: 25 µM

CCCCC=O
AC50 [4]: inconclusive: 25 µM

COC(=O)c1c(Cl)c(Cl)c(C(=O)OC)c(Cl)c1Cl
AC50 [13]: inconclusive: 25 µM

Cn1c(=O)cc(Oc2ccc(F)cc2F)c2cnc(NCC(C)(C)O)nc21
AC50 [7]: inconclusive: 0.707 µM

COC(=O)c1c(Cl)nn(C)c1S(=O)(=O)NC(=O)Nc1nc(OC)cc(OC)n1
AC50 [13]: inconclusive: 25 µM

NCC1(Cc2noc(=O)[nH]2)CCCCC1
AC50 [3]: inconclusive: 25 µM
outcome [14]: inactive
outcome [15]: inactive

NC(=O)NO
outcome [4]: inactive

CC1(C)NC(=O)N(c2ccc([N+](=O)[O-])c(C(F)(F)F)c2)C1=O
AC50 [4]: inconclusive: 0.1 µM

Cc1ncc(CO)c(CO)c1O
AC50 [13]: inconclusive: 25 µM

Cc1nc(C)nc(N2C[C@@H](C)N(c3ccnc([C@@H](C)O)n3)[C@@H](C)C2)n1
AC50 [4]: inconclusive: 12.5 µM
outcome [5]: inactive

Nc1cccc(N)c1
AC50 [7]: inconclusive: 25 µM
outcome [14]: inactive

CCOC(=O)CC(CC(=O)OCC)(OC(C)=O)C(=O)OCC
outcome [7]: inactive
